Data reported in paper PMC3365032.
These are yes or no findings as the source states them, for the method shown. Binding can be weak; no strength is given. Blank lines part the entries; values can stand above or below the molecule they belong to.

By UniProt entry, the sequences of proteins in these tests, tags left out. Where a name states a change or a piece, a line headed by the entry shows the natural chain unless it says otherwise.
UniProt P08069: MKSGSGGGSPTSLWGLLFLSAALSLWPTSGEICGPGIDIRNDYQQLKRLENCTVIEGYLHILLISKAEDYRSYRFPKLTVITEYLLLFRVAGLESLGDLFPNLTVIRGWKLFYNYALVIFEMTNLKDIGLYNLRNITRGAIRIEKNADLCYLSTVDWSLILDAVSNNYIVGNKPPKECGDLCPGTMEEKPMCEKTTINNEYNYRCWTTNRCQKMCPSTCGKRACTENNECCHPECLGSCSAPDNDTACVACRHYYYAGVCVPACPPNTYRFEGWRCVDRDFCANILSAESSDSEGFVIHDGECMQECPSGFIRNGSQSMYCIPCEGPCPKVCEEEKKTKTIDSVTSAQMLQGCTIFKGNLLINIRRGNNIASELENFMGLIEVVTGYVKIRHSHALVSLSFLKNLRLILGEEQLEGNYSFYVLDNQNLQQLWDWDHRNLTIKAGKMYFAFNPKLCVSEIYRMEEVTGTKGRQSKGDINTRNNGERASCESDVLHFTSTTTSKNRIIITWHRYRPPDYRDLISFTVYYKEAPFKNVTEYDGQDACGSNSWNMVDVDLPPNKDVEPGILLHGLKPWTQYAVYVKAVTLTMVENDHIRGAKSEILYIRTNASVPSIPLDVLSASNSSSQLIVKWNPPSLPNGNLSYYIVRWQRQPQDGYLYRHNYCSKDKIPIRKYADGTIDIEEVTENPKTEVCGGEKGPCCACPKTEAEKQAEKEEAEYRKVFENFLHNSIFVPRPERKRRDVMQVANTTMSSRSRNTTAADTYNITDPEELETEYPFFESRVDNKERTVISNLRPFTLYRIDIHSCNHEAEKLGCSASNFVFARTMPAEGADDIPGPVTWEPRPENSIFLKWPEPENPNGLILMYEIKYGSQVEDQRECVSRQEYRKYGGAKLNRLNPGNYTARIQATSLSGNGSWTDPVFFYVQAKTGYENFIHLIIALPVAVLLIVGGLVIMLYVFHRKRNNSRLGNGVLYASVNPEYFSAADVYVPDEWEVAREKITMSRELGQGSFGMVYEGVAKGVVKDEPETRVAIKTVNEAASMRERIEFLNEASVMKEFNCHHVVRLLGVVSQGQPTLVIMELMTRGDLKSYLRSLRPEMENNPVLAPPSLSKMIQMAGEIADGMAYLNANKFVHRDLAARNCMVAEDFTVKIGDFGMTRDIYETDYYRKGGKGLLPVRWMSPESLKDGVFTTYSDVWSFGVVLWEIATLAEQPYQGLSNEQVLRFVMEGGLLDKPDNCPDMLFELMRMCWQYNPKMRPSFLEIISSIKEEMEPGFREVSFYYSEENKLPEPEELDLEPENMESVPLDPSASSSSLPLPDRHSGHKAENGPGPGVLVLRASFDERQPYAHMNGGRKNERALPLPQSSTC
UniProt P35568: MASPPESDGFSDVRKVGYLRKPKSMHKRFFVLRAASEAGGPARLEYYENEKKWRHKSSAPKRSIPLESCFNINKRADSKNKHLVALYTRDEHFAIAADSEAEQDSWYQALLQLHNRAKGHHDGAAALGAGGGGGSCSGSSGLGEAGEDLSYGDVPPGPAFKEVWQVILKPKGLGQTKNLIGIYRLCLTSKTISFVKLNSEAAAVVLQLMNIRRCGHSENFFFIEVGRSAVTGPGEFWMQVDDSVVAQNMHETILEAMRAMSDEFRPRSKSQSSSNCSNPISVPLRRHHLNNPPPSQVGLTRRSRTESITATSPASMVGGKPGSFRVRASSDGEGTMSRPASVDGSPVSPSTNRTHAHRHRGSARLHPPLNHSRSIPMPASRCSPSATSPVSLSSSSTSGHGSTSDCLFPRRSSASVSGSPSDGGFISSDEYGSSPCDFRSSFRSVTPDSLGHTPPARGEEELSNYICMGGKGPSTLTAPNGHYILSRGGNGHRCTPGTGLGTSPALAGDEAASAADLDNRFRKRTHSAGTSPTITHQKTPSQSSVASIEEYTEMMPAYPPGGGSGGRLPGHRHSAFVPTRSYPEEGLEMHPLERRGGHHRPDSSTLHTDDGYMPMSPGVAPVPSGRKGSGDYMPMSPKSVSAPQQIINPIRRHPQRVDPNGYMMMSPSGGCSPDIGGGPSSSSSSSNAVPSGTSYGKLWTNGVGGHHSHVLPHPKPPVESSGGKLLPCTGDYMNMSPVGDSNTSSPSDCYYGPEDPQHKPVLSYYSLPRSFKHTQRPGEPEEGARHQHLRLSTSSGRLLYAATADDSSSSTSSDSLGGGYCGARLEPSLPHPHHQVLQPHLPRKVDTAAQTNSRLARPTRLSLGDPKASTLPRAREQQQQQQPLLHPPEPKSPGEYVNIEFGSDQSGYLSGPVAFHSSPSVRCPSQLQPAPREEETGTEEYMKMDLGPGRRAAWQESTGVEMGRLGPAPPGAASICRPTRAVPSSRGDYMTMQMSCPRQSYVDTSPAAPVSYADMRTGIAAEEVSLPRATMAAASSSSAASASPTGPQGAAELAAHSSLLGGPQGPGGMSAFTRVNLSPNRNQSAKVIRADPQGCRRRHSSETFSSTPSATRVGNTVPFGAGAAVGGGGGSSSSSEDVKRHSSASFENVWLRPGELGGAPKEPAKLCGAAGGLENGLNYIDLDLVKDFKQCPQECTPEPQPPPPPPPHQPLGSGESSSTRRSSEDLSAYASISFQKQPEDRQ
UniProt P31946: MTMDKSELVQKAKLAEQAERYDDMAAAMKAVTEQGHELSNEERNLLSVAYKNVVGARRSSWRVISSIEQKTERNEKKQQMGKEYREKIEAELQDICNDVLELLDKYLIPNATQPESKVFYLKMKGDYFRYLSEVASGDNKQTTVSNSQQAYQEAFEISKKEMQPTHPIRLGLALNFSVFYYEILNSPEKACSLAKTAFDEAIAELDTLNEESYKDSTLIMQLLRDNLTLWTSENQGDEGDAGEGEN

Molecular target: IGF1R-C wild type (intracellular domain of the IGF1R fused to a LexA DNA binding domain) (human) (UniProt P08069)
Assay: two-hybrid; colony-lift filter assay with X-Gal; EGY48/LacZ yeast co-transformed with pLexA (IGF1R-C derivatives) and pB42 (adapter proteins) constructs; 30°C

binding: binds
Molecule: IRS1 (insulin receptor substrate 1), B42-AD fusion (from UniProt P35568 1-1242)

binding: binds
Molecule: 14-3-3β, B42-AD fusion (from UniProt P31946 1-246)

binding: binds
B1: GIPC (GAIP C-terminus-interacting protein 1, synectin) (protein, UniProt O14908 1-333)
chain: MPLGLGRRKKAPPLVENEEAEPGRGGLGVGEPGPLGGGGSGGPQMGLPPPPPALRPRLVFHTQLAHGSPTGRIEGFTNVKELYGKIAEAFRLPTAEVMFCTLNTHKVDMDKLLGGQIGLEDFIFAHVKGQRKEVEVFKSEDALGLTITDNGAGYAFIKRIKEGSVIDHIHLISVGDMIEAINGQSLLGCRHYEVARLLKELPRGRTFTLKLTEPRKAFDMISQRSAGGRPGSGPQLGTGRGTLRLRSRGPATVEDLPSAFEEKAIEKVDDLLESYMGIRDTELAATMVELGKDKRNPDELAEALDERLGDFAFPDEFVFDVWGAIGDAKVGRY
